In US20130183315A1:
No constants are given. Whether binding was seen depends on the method and setting. Some results given as binding are weak or reduced against the parent protein; the word gives no strength. Blank lines part the entries; values can stand above or below the binder they belong to.

Chains of the proteins cited; added tags and fusions are not shown. Lines headed by an entry give the natural chain unless they say otherwise; changes in a name come on top.
UniProt P43489: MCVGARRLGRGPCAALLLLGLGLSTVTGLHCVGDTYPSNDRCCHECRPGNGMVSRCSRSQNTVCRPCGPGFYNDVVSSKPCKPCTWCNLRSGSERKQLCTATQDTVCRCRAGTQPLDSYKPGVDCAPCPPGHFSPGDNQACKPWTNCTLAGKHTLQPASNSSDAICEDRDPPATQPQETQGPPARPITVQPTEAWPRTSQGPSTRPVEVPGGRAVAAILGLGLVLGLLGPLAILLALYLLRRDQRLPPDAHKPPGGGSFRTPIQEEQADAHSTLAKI

Experiments:
[1] = target: chimeric RHRR OX40 protein (Fc fusion) (human-rat chimera; human); assay: ELISA on coated OX40 Fc fusion (2 µg/mL), anti-human F(ab')2-HRP detection; antibody concentration not given
[2] = target: chimeric HHRR OX40 protein (Fc fusion) (human-rat chimera; human); assay: as above
[3] = target: recombinant human OX40-Fc protein (human) (UniProt P43489); assay: as above
[4] = target: chimeric RHRR OX40 protein (Fc fusion) (human-rat chimera; human); assay: binding ELISA on coated OX40 Fc fusion
[5] = target: chimeric HHRR OX40 protein (Fc fusion) (human-rat chimera; human); assay: binding ELISA on coated OX40 Fc fusion
[6] = target: recombinant human OX40-Fc protein (human) (UniProt P43489); assay: binding ELISA on coated OX40 Fc fusion
[7] = target: recombinant human OX40-Fc protein (human) (UniProt P43489); assay: blocking ELISA on coated human OX40-Fc; blocked ligand: biotinylated recombinant human OX40L, streptavidin-HRP detection

binding [1]: binds | binding [2]: binds | binding [3]: binds | binding [4]: binds | binding [5]: binds | binding [6]: binds
B1: VH6/VL9 antibody (antibody, human IgG1, kappa, V domains shown)
VH: QVTLKESGPALVKPTQTLTLTCSFSGFSLSTSGMGVGWIRQPPGKALEWIAHIWWDDDKYYNTALKTRLTISKDTSKNQVVLTMTNMDPVDTATYYCARIDWDGFAYWGQGTLVTVSS
VL: EIVLTQSPATLSLSPGERATLSCRASSSVSYMHWYQQKPGQAPRPWIYATSNRATGIPARFSGSGSGTDYTLTISSLEPEDFAVYYCQQWSSNPWTFGQGTKVEIKR

binding [7]: binds
B2: chimeric 1D4 antibody (antibody, human IgG1, kappa, V domains shown)
VH: QVTLKESGPGILQPSQTLSLTCSFSGFSLSTSGMGVGWIRQPSGKGLEWLAHIWWDDDKYYNTALKSGLTISKDTSKNQVFLKIASVDTTDTATYYCARIDWDGFAYWGQGTLVTVSS
VL: QIVLTQSPAILSASPGEKVTMTCRASSSVSYMHWYQQKPGSSPKPWIYATSNLASGVPARFSGSGSGTSYSLTINRVEAEDAATYYCQQWSSNPWTFGGGTKLEIKR
